Data taken from publication PMC11347159, “MUT-7 exoribonuclease activity and localization are mediated by an ancient domain” (Nucleic Acids Research, 2023).
No constants are given. Whether binding was seen depends on the method and setting. Tags and fused reporters may be left off the sequences shown.

T1: GST-tagged MUT-16^584–724 (Caenorhabditis elegans) (UniProt O62011)
T1 sequence: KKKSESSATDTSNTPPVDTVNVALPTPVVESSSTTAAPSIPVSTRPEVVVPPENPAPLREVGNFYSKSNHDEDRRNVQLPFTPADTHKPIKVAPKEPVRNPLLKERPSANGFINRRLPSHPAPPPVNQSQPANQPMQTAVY

T2: GST-tagged MUT-16^1–383 (Caenorhabditis elegans) (UniProt O62011)
T2 sequence: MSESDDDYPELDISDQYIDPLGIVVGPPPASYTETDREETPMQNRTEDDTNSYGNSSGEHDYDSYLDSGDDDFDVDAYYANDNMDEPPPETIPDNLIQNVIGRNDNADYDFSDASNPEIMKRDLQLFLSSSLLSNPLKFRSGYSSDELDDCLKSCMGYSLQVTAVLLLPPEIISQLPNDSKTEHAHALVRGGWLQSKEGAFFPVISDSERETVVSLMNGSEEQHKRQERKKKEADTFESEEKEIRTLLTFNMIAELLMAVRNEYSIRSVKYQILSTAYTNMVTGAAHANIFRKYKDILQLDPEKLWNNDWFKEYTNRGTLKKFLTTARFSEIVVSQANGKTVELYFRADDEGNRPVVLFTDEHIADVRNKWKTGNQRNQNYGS

T3: GST-tagged MUT-16^1–584 (Caenorhabditis elegans) (UniProt O62011)
T3 sequence: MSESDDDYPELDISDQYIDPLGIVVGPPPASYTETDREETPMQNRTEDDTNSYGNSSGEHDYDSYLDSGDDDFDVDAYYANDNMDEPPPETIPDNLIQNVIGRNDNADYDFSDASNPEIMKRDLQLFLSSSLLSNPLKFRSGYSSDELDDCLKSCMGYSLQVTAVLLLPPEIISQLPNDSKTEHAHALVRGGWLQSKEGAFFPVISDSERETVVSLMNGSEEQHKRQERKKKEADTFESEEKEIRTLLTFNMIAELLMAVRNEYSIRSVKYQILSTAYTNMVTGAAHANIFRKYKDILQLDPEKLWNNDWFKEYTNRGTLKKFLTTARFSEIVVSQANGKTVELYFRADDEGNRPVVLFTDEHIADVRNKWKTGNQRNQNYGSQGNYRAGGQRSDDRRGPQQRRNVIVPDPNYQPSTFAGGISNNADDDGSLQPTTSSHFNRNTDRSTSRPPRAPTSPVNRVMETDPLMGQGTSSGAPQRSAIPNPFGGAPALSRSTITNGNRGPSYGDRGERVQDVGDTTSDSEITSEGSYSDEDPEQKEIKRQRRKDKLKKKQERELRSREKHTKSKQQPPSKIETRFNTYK


Tests used:
Test in all cases: pull-down; purified proteins (5 μM) pre-incubated 30 min at 4°C in 20 mM HEPES/NaOH pH 7.5, 150 mM NaCl, 10% glycerol, 0.05% IGEPAL, 2 mM DTT; GST-tagged MUT-16 constructs held on glutathione resin; SDS-PAGE, Coomassie; both purified
[1] = target: T1, GST-tagged MUT-16^584–724 (Caenorhabditis elegans)
[2] = target: T2, GST-tagged MUT-16^1–383 (Caenorhabditis elegans)
[3] = target: T3, GST-tagged MUT-16^1–584 (Caenorhabditis elegans)

binding [1] | binding [2] | binding [3] | Binder
no binding (tested: 5 μM) | – | – | MUT-7^CTD/MUT-8^CTD complex (complex, UniProt P34607 633-910; Q19672 322-578) chain 1: SYRKLKTIPWLELYDILRSHRNPTRSPQRPHDIKVIVDTMLIGFGKNLRRVGIDVILPKDVSDFRKYLKEIERVGGEHLRHIITVPSKSYEALKMDYDNYTIAIPELNNMSPVDQLIEFFDLFNVDIRPEDVYPRCTECNSRLQIKFPGPVLHFLHQYCVIHVQNVYRADMSEFPLEEWWNRMLHINPDDYDGVKVEMSRPSPTSKWIVATVPTGCLHITRQTALHTNLPDGIEVRIHKVPDDEFKRRNLSFYVCGECGTVACDGRGNQASESTSQEC chain 2: DEDEIDDEDTYGTRGTSNIPMRPFIKDLAPTMLQLLRQDKTDSEKPQSALCTVVQKIDGFAILYTAKRDVINVLLQERSCEGLERSPQLGDVAFFDILPRRIETKDRLIFKIPYTHIAVKKKPDTPDSLLKIDCFKNSVRCFGGVLEMKVKIALSKPELVVEQYHDNTEMNSDHHFYYLKATNGVLVTIPKERLLNHLNSKLSADFDLIAWVVHRKPIGNVSLHIGKGGEAYQQFTNGDIRELPPLSSNQYFMNVRK
– | no binding (tested: 5 μM) | no binding (tested: 5 μM) | MUT-7^FL/MUT-8^FL complex (complex, UniProt P34607 1-910; Q19672 1-578) chain 1: MEEEPYKRKLTKAEKKAKYRTDYAEPLKSRREVLKAIMNGPESERERKVRAKNREFFNEDYRSGVNIYGMAVDMMKAMPDRGKTSGQSLAVWYLEDFGVWLKESGQETELRQKYLTGTIQINALDVCTIGQKQLLSEIFDITKEKFTEDITQLLDAAIKKQDFSVAADMAIQYNLLRDHHFEHLVLPLMLSGKDQTAYKLISNNERMQQQLVEFFDRMVGISVVAVEEMLKPYKETKIMTIPMEKLTGKTLDKLISTIINKNTHEYNFSRELSKFAKNHSQNGNLKALKFNISERYEKGKSDDNYFQHMVETFTKAEDVREPILFYLWSSNDTEKQIDAICFAIYLGIASSSSYQLPNVMRDFFRQPDSKLREAKELLVRRKTLQVPLNGEQLFVFENERRTQIHMVKTESEMNYLCSEIKSLSDEPAPVYVGFDSEWKPSNLTAVHDSKIAIIQLFFKNCVWLVDCVELEKANMADDWWQKFASRLFGDSPVKVVGFDMRNDLDAMATIPALKSSMKIEDTKNAFDLKRLAENVCDIDMEILELPKKTFKLADLTHYLLGLELDKTEQCSNWQCRPLRKKQIVYAALDAVVVVETFKKILSIVEEKNKDADIEKIVRESNVMAPKKDKGHKSYRKLKTIPWLELYDILRSHRNPTRSPQRPHDIKVIVDTMLIGFGKNLRRVGIDVILPKDVSDFRKYLKEIERVGGEHLRHIITVPSKSYEALKMDYDNYTIAIPELNNMSPVDQLIEFFDLFNVDIRPEDVYPRCTECNSRLQIKFPGPVLHFLHQYCVIHVQNVYRADMSEFPLEEWWNRMLHINPDDYDGVKVEMSRPSPTSKWIVATVPTGCLHITRQTALHTNLPDGIEVRIHKVPDDEFKRRNLSFYVCGECGTVACDGRGNQASESTSQEC chain 2: MHNGYHSYFPPNHYYAQSQPSSSYNPQPQIQQPQTQIYGLVVGYNKYGNRNYLFYTKNIDGFVEISGNIQSLQIGRWLKLTVCQNFVGQYVLDSSNSCGYENWDVLPNHRNSSARFFPKYEANDEGEILITARFDVIVDRKNNLYDFTSYDISYDHIIDDFSLIKSSCQHYDGRSFIVEAQASLAGWVALSVHEDPQKLHTCDAVSRNGYQSLPNPVVDSDVQYLHDTRLLDIMTGNGYVQTPETDVQDQQSSQHQEDVHSQMNSQTSDSYNSSRVVSENREIPPETFRSQSIELNQVDSSLSQTTISSRAAPVIDSNQLSDEDEIDDEDTYGTRGTSNIPMRPFIKDLAPTMLQLLRQDKTDSEKPQSALCTVVQKIDGFAILYTAKRDVINVLLQERSCEGLERSPQLGDVAFFDILPRRIETKDRLIFKIPYTHIAVKKKPDTPDSLLKIDCFKNSVRCFGGVLEMKVKIALSKPELVVEQYHDNTEMNSDHHFYYLKATNGVLVTIPKERLLNHLNSKLSADFDLIAWVVHRKPIGNVSLHIGKGGEAYQQFTNGDIRELPPLSSNQYFMNVRK
